Source: patent US20110313131 (published 2011)

Test: peptide synthesis
Details: purification step

With (Aib^8,35)GLP-1(7-36)NH2 the “final purity (method not given)” value (run 1) was 97.0%, the step yield (run 1) was 87% and the “final purity (method not given)” value (run 2) was 97.2%. The step yield (run 2) was 93%, the “final purity (method not given)” value (run 3) was 97.4% and the step yield (run 3) was 98%. For the same substance, the “final purity (method not given)” value (run 4) was 97.1%, the step yield (run 4) was 99% and the “final purity (method not given)” value (run 5) was 96.7%. The step yield (run 5) was 86%.
